Results are given in words; binding and its absence hold for the method and conditions named. Some entries that bind do so weakly or less than the wild type.
Legend:
[1] = target: xPSM (extracellular portion of human PSMA, Tag-xPSM digested with enterokinase, no affinity tags) (human) (UniProt Q04609); test: phage ELISA on xPSM
[2] = target: PSMA on LNCaP cells (human) (UniProt Q04609); test: phage binding to LNCaP cells, 10^8 PFU, BRASIL partitioning and titer
[3] = target: Tag-xPSM fusion target protein (human) (UniProt Q04609); test: phage ELISA, Tag-xPSM immobilised on microtiter plates, 10^10 PFU, absorbance at 410 nm

Amino acid sequences for entries named in this document (tags omitted). A change or cut given only in a name is not applied to a line headed by its entry. Residues count along the entry.
UniProt Q04609: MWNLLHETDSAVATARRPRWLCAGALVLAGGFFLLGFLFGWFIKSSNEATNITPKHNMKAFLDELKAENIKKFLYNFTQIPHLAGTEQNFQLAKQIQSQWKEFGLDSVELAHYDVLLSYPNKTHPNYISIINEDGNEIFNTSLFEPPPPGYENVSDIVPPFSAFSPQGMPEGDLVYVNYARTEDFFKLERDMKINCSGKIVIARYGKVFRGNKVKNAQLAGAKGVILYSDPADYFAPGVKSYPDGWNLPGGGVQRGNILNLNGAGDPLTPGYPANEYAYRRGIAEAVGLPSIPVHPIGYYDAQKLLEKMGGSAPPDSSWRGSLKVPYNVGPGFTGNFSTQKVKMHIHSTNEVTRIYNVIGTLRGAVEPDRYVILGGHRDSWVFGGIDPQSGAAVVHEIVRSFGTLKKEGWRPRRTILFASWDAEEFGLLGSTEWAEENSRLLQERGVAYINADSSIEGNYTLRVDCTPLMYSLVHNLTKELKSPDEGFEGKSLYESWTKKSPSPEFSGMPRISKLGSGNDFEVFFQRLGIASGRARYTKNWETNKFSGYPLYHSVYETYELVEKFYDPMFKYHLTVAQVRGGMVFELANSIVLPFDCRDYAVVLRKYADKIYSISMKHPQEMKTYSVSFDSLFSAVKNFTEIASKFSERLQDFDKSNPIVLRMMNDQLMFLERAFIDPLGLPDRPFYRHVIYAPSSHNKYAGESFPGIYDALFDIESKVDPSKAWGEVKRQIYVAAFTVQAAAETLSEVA
Tag-xPSM fusion target protein: residues 44-750 of Q04609

Measured: binding

CTLVPHTRC (peptide, not shown: large carriers) [R4-C9 phage (M13 phage displaying …)]
binds: all assays above
